PMC4587736

How the values were obtained:
[1] = molecular target: T1, SmKIN3 fused to the GAL4 DNA-binding domain (pBD-SmKIN3) (Sordaria macrospora) (UniProt F7VYS5); assay: two-hybrid; Matchmaker two-hybrid system 3; kinases fused to GAL4 binding domain (pGBKT7, Y187), partners fused to GAL4 activation domain (pGADT7, AH109); mated diploids, drop plate assay on SD without leu, trp and ade
T1 sequence: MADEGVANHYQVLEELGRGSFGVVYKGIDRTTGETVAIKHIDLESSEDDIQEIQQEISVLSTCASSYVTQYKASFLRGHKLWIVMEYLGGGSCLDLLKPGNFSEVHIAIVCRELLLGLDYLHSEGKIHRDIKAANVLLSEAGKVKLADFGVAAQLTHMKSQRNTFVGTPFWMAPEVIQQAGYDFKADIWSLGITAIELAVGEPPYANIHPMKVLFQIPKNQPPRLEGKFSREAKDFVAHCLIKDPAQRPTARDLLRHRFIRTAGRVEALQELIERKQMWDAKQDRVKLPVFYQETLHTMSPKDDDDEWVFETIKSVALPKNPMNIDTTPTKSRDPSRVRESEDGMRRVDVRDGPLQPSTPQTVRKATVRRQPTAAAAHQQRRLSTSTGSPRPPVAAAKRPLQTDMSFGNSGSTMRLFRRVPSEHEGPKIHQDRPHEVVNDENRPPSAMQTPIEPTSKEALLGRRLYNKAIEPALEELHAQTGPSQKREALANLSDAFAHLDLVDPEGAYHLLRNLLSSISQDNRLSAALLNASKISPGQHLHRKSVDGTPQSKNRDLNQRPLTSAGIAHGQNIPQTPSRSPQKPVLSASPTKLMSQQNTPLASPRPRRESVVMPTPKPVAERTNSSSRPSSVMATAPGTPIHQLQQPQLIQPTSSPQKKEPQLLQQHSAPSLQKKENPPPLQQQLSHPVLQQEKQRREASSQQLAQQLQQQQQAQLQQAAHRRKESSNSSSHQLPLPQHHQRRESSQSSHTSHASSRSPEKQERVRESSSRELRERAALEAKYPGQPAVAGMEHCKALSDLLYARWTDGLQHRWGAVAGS

[2] = molecular target: T2, SmKIN24 fused to the GAL4 DNA-binding domain (pBD-SmKIN24) (Sordaria macrospora) (UniProt F7VQV9); assay: as above
T2 sequence: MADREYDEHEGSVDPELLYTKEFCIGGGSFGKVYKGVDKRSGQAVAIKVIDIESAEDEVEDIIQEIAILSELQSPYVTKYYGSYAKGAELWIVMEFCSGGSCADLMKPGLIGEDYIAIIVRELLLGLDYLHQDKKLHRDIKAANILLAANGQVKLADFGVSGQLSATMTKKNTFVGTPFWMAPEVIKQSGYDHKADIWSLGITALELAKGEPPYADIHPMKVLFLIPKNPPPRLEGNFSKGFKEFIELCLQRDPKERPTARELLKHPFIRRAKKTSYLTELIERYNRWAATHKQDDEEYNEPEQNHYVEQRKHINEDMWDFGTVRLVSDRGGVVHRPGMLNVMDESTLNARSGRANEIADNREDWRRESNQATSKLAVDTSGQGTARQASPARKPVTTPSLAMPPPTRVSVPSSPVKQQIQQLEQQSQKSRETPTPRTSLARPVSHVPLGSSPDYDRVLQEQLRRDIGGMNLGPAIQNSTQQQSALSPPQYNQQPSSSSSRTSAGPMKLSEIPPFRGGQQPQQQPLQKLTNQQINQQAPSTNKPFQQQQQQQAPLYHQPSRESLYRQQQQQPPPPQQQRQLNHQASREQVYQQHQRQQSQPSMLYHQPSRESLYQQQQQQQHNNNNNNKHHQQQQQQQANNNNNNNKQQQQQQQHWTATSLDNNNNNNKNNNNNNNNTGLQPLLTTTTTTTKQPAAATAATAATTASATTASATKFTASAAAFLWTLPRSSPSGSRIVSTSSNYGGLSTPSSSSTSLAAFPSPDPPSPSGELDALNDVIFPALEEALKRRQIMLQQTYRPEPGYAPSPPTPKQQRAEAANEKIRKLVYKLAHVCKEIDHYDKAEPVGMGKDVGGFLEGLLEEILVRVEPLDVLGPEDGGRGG

## SmMOB3 fused to the GAL4 activation domain (Sordaria macrospora)
[1]
  binding: no binding
[2]
  binding: no binding

No constants are given. Whether binding was seen depends on the method and setting. Sequences can lack the tags named with a protein.
